## Primary screen of a compound library

Chains of the proteins cited; added tags and fusions are not shown. Residues count along the entry.
UniProt P9WFT3, whole entry: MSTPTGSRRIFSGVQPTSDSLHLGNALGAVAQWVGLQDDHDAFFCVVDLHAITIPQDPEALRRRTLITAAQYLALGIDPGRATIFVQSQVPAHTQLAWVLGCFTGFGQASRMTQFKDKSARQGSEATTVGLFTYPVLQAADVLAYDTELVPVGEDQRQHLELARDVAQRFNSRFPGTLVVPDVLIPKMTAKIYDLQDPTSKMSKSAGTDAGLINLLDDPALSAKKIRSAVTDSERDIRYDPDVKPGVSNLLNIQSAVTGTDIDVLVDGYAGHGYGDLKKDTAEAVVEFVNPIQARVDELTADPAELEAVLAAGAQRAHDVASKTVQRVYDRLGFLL
UniProt P9WNZ1, whole entry: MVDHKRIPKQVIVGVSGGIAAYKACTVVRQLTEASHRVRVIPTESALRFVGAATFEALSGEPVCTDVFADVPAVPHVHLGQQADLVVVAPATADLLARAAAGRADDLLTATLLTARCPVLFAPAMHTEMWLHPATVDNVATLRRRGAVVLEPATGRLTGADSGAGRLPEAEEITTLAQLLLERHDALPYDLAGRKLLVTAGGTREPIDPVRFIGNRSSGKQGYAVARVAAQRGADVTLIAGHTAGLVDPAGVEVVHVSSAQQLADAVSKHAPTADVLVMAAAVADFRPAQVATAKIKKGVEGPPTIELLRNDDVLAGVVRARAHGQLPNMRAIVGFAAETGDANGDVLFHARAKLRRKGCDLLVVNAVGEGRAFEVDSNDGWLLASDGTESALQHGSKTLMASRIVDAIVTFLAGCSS
UniProt A4I591, 1-473: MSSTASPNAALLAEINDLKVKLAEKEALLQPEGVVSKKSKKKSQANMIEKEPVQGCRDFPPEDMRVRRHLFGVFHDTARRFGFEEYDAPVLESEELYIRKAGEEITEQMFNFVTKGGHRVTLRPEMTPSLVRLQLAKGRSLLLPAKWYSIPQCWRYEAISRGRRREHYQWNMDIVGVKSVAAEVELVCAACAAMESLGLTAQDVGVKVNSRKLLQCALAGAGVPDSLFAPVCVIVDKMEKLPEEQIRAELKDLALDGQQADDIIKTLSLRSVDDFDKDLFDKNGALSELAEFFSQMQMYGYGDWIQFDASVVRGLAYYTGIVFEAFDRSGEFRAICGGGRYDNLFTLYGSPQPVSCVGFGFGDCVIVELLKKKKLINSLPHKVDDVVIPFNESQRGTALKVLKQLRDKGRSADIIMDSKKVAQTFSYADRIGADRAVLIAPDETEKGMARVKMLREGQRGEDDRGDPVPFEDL
UniProt I6X8D2, whole entry: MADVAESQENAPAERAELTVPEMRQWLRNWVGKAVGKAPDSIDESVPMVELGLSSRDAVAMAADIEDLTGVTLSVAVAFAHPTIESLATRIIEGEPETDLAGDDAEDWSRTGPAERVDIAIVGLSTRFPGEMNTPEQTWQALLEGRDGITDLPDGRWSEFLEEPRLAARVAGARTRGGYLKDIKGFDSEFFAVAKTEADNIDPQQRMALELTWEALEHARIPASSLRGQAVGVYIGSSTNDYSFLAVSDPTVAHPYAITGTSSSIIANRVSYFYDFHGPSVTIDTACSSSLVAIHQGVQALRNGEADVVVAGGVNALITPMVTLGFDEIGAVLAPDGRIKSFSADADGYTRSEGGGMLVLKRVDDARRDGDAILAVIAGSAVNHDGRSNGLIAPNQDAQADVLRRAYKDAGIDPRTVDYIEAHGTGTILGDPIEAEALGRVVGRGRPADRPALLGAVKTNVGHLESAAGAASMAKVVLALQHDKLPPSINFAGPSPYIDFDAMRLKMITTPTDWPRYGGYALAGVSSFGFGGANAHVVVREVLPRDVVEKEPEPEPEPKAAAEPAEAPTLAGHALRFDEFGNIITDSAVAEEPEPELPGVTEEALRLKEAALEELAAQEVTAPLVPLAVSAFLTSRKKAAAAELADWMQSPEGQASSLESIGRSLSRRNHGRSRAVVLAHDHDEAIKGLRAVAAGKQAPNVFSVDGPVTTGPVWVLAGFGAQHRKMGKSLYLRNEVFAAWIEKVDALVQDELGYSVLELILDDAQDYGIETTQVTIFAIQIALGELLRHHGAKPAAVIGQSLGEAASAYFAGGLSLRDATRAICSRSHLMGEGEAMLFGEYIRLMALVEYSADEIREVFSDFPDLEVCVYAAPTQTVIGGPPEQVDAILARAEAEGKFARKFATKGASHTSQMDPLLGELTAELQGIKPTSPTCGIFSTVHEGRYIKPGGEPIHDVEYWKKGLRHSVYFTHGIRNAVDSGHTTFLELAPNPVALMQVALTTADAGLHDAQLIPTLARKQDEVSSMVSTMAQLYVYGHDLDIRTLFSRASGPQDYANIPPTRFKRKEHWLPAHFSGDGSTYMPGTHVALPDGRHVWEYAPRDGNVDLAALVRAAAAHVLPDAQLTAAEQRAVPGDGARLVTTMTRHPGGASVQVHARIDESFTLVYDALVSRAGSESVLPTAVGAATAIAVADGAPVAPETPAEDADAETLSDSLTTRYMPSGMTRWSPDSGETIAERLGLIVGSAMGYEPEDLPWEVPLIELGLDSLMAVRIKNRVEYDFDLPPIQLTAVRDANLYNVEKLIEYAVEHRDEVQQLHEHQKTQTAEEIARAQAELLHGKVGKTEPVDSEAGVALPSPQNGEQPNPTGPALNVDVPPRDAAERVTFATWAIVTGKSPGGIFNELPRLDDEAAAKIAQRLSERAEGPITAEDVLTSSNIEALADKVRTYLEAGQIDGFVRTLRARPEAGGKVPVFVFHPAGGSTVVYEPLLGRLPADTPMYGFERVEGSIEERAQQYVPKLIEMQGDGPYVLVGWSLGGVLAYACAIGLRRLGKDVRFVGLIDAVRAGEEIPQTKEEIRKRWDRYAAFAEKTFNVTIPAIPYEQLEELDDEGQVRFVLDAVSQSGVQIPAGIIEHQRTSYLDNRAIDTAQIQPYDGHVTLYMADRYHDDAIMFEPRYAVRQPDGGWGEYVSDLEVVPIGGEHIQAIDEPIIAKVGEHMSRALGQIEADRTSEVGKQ

A: 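Tryptophan-tRNA ligase, Mycobacterium tuberculosis (UniProt P9WFT3). Enzyme assay of tryptophanyl-tRNA synthetase; the read-out is not stated. Concentration: 10 µM. Higher most likely means stronger inhibition; the record gives no direction and few retests gave an IC50. Of about 65,000 compounds tested this way, about 64 (0.098%) reached 50% or more in at least one test.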
B: 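Enzyme assay of CoaBC with a phosphate dye (Biomol Green) read at 650 nm. Target: Coenzyme A biosynthesis protein CoaBC, Mycobacterium tuberculosis (UniProt P9WNZ1). Tested at 30 µM. Direction is inferred from only a few compounds that gave an IC50; most scored high, so higher reads as stronger inhibition. Most strong results did not repeat in a second test. Of about 67,000 compounds tested this way, about 40 (0.06%) reached 50% or more in at least one test.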
C: 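Enzyme assay of histidyl-tRNA synthetase; the read-out is not stated. Target: Histidine-tRNA ligase, Leishmania infantum (UniProt A4I591). Concentration: 30 µM. Direction is inferred from retests: higher values go with stronger inhibition. The assay is labelled LdHisRS but filed under L. infantum. About 69,000 compounds were tested under these conditions; 0.6% (about 410) showed 50% or more at least once.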
D: 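Enzyme assay of the thioesterase domain of polyketide synthase 13; the read-out is not stated. Target: Polyketide synthase Pks13, Mycobacterium tuberculosis (UniProt I6X8D2). Concentration: 30 µM. Higher reads as stronger inhibition (inferred from which compounds were picked for retests). Of about 67,000 compounds tested this way, about 300 (0.46%) reached 50% or more in at least one test.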

The filed quantity is “Percent Effect” (%).
The record does not define 0% and 100%; most values in the screen are far below 50% and negative numbers occur (in some assays of this library far below -100).
Compounds were drawn at random from those tested, without regard to their results.
A dash means the value is not listed here; it may have been measured.

{"structure": "N#Cc1cccc(NC2CC(=O)N(CCCc3ccccc3)C2)n1", "stereo": "centres undefined", "A": 3.363, "B": -0.4963, "C": 8.511, "D": -21.39}
{"structure": "CNC(=O)C1Cn2ccnc2C2(CCN(Cc3c(C)noc3C)CC2)O1", "stereo": "centres undefined", "A": 5.004, "B": 1.25, "C": 16, "D": -9.859}
{"structure": "COc1ccc(F)cc1S(=O)(=O)NCC(c1cccn1C)N(C)C", "stereo": "centres undefined", "A": -1.639, "B": -3.198, "C": 25, "D": -5.357}
{"structure": "O=C(c1ccc2[nH]ccc2c1)N1CCn2cc(CN3CCCC3)nc2C1", "A": -3.909, "B": 6, "C": 30, "D": -9.315}
{"structure": "O=C(Nc1cnc2n1CCCC2)C1CCCN1C1CCNCC1", "stereo": "centres undefined", "A": -1.634, "B": 1.781, "C": 15.38, "D": -5.963}
{"structure": "Cc1ccc(-c2cc(C(=O)NCCN3CCCS3(=O)=O)[nH]n2)cc1", "A": 18.82, "B": 4.604, "C": 5.505, "D": -25.14}
{"structure": "c1cncc(N2CCCn3nnc(CN4CCOCC4)c3C2)c1", "B": 3.758, "C": 1.923, "D": -3.416}
{"structure": "CCN1CCCC(CNC(=O)C2(c3cc(C)cc(C)c3)CCC2)C1", "stereo": "centres undefined", "A": 25.17, "B": 1.149, "C": 15.18, "D": -16.52}
{"structure": "O=C(c1ccc2c(c1)OCO2)N1CCN2C(=O)NC[C@H]2C1", "A": -1.431, "B": 14.22, "C": 27.78, "D": -30.01}
{"structure": "COc1cccc(-c2nc(CNCCCn3cccn3)cs2)c1", "A": -1.319, "B": -9.474, "C": 16.98, "D": 15.14}
{"structure": "CNC(=O)COc1cccc(CNC(=O)c2c(C)noc2C(C)C)c1", "A": 4.187, "B": 3.484, "C": 8.696, "D": -1.895}
{"structure": "Cc1ccc(CNC(=O)NCCCn2nc3ccccn3c2=O)s1", "A": 4.304, "B": 3.44, "C": 9.524, "D": 96.83}
{"structure": "Cc1noc(C)c1CN(C)C(=O)NC1CCOCC1", "A": 13.77, "B": 2.895, "C": 17.59, "D": -25.32}
{"structure": "CC(C#N)CN(C)Cc1ccc(Cl)c2cccnc12", "stereo": "centres undefined", "A": -0.5198, "B": 2.823, "C": 2.632}
{"structure": "CC[C@H](C)[C@H](NC(=O)c1cccc(-n2cnnn2)c1)C(=O)OC", "A": -0.311, "B": 0.3632, "C": 11.96, "D": -21.35}
{"structure": "CCOC(=O)[C@]12CCCN(Cc3nccs3)C[C@H]1CN(CCOC)C2", "A": 0.239, "B": -4.842, "C": 11.5, "D": 9.782}
{"structure": "COCCCNS(=O)(=O)c1ccc2c(c1)NC(=O)C(C)O2", "stereo": "centres undefined", "A": -6.223, "B": 0.1227, "C": 9.929, "D": 0.9392}
{"structure": "CCC(NC(=O)CC1CCN(C(C)C)CC1)c1cn2cccnc2n1", "stereo": "centres undefined", "A": -4.332, "B": 7.582, "C": 18.57, "D": -18.76}
{"structure": "CCN(CC(=O)Nc1cc(C(C)(C)C)no1)Cc1ccc(Cl)s1", "A": 0.6399, "B": 3.226, "C": 19.74, "D": 3.862}
{"structure": "CC1(C)CC1(C(=O)N1CC(c2cccnc2)C1)c1ccc(F)cc1", "stereo": "centres undefined", "A": -2.545, "B": -0.86, "C": 1.55, "D": -1.768}
{"structure": "CCn1cc(NC(=O)NCC2(N3CCOCC3)CCSC2)cn1", "stereo": "centres undefined", "A": 1.935, "B": -1.493, "C": 11.54, "D": -13.79}
{"structure": "CN(CCO)C[C@@H]1CN(Cc2ccccc2-c2ccccc2)C[C@@H]1CO", "A": -8.178, "B": -28.18, "C": 13.7, "D": -19.43}
{"structure": "CC(NCC1CCN(CCO)CC1)c1ccc(OC(F)(F)F)cc1", "stereo": "centres undefined", "A": 1.341, "B": -38.39, "C": 13.7, "D": -33.41}
{"structure": "O=C(Nc1ccc2c(c1)OCO2)N1CCN(CCn2cccn2)CC1", "A": 2.058, "B": 12.18, "C": 38.46, "D": -22.6}
{"structure": "Cc1cccc(NC(=O)N2CCC(CO)(Nc3ccccc3)CC2)c1", "A": -3.344, "B": 0.6711, "C": 12.64, "D": -15.2}
{"structure": "CC1CCc2nn(CCNC(=O)Cc3cccs3)c(=O)cc2C1", "stereo": "centres undefined", "A": -6.223, "B": 0.3681, "C": 11.35, "D": 4.829}
{"structure": "CN(C)S(=O)(=O)NCCn1nc(-c2ccccc2)n(C)c1=O", "A": -0.228, "B": -0.2114, "C": 12.17, "D": -6.491}
{"structure": "CC(C)N1CCC2(CC1)C(=O)N(c1cccnc1)c1c(F)cccc12", "A": 0.2116, "B": -2.083, "C": 7.692, "D": -9.958}
{"structure": "CN(Cc1ccc(Br)s1)Cn1nc(-c2ccc(F)cc2)oc1=O", "A": -5.448, "B": 4.435, "C": 21.05, "D": 3.171}
{"structure": "CS(=O)(=O)N1CCCCCC1c1cc(-c2ccc(F)cc2)no1", "stereo": "centres undefined", "A": -5.541, "B": 10.6, "C": 1.408, "D": 2.75}
{"structure": "COc1ccc(C(=O)N2CC(c3ccncc3)C2)c(OC)c1OC", "A": -6.296, "B": 0.9804, "C": 11.11, "D": -11.26}
{"structure": "O=C(NC(c1ccc(Cl)cc1)C(F)(F)F)c1nc(=O)[nH][nH]1", "stereo": "centres undefined", "A": 14.63, "C": 21.13, "D": -6.595}
{"structure": "CC(CCNC(=O)NCCc1ccc(S(N)(=O)=O)cc1)c1ccccc1", "stereo": "centres undefined", "A": -6.638, "B": 0, "C": 13.68, "D": -42.22}

Once more, the final 3:

| structure | A | B | C | D |
|---|---|---|---|---|
| `COc1ccc(C(=O)N2CC(c3ccncc3)C2)c(OC)c1OC` | -6.296 | 0.9804 | 11.11 | -11.26 |
| `O=C(NC(c1ccc(Cl)cc1)C(F)(F)F)c1nc(=O)[nH][nH]1` (centres undefined) | 14.63 | - | 21.13 | -6.595 |
| `CC(CCNC(=O)NCCc1ccc(S(N)(=O)=O)cc1)c1ccccc1` (centres undefined) | -6.638 | 0 | 13.68 | -42.22 |

Measurements from “University of Dundee, Small-Polar-MMV Screening Library” (2021), ChEMBL document CHEMBL3988442.